Laboratory results: PubChem BioAssay AID1259308 (NCATS, 2017)
This is a random part of about 59,000 deposited reagents. Over the whole deposit, about 1,510 (2.6%) got an active call. 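Calls use total luciferase alone and ignore viability, so some active siRNAs may act by altering cell number.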 Reagents against one gene are numbered here. Further read-outs or replicates are left out here.

- Aim: 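Knock-downs that increase output of a recombinant reporter protein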 (primary screen)
- Cell system: human HEK293 embryonic kidney cells stably expressing firefly luciferase (HEK-CMV-Luc2-Hygro)
- Reagent: single siRNA against human genes, 0.8 pmol siRNA per well
- Duration: 72 h
- Measured: 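Luciferase light (ONE-Glo) measured on one replicate plate set and viability (CellTiter-Glo) on the other, scaled to a negative control siRNA, with robust z-scores and luciferase per cell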
- Direction: total luciferase, z-score: higher = more reporter protein produced
- Call rule: 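Active when the median/MAD z-score for overall luciferase is greater than 3; a gene was taken forward for validation with new siRNAs if at least two of its three siRNAs passed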
- Calls: active = raised luciferase; inactive = no rise

Which result is listed for KRTAP2-1 (keratin associated protein 2-1) #1?
total luciferase, z-score: 0.86; activity call: inactive

For KRTAP2-1 (keratin associated protein 2-1) #2, what does the deposit list?
total luciferase, z-score: 0.899; activity call: inactive

Which result is listed for KRTAP2-1 (keratin associated protein 2-1) #3?
total luciferase, z-score: 0.601; activity call: inactive

How did the screen score ADAM33 (ADAM metallopeptidase domain 33) #1?
total luciferase, z-score: -0.62; activity call: inactive

What is on record for ADAM33 (ADAM metallopeptidase domain 33) #2?
total luciferase, z-score: 1.68; activity call: inactive

Which result is listed for ADAM33 (ADAM metallopeptidase domain 33) #3?
total luciferase, z-score: -0.651; activity call: inactive

With SAMD14 (sterile alpha motif domain containing 14) #1, what does the deposit list?
total luciferase, z-score: 0.608; activity call: inactive

How did the screen score SAMD14 (sterile alpha motif domain containing 14) #2?
total luciferase, z-score: -0.417; activity call: inactive

With SAMD14 (sterile alpha motif domain containing 14) #3, what was measured?
total luciferase, z-score: -0.635; activity call: inactive

For DNAL4 (dynein axonemal light chain 4) #1, what was measured?
total luciferase, z-score: -0.288; activity call: inactive

With DNAL4 (dynein axonemal light chain 4) #2, what does the deposit list?
total luciferase, z-score: 0.941; activity call: inactive

With DNAL4 (dynein axonemal light chain 4) #3, what was measured?
total luciferase, z-score: -1.5; activity call: inactive

With RESF1 (retroelement silencing factor 1) #1, what was measured?
total luciferase, z-score: -0.546; activity call: inactive

How did the screen score RESF1 (retroelement silencing factor 1) #2?
total luciferase, z-score: 1.53; activity call: inactive

With RESF1 (retroelement silencing factor 1) #3, what does the deposit list?
total luciferase, z-score: 0.611; activity call: inactive

With HOATZ (HOATZ cilia and flagella associated protein) #1, what does the deposit list?
total luciferase, z-score: 0.246; activity call: inactive

For HOATZ (HOATZ cilia and flagella associated protein) #2, how do the results read?
total luciferase, z-score: -0.386; activity call: inactive

How did the screen score HOATZ (HOATZ cilia and flagella associated protein) #3?
total luciferase, z-score: -1.33; activity call: inactive

6 successive reagents from above, for reference:
SAMD14 (sterile alpha motif domain containing 14) #3: total luciferase, z-score = -0.635; activity call = inactive
DNAL4 (dynein axonemal light chain 4) #1: total luciferase, z-score = -0.288; activity call = inactive
DNAL4 (dynein axonemal light chain 4) #2: total luciferase, z-score = 0.941; activity call = inactive
DNAL4 (dynein axonemal light chain 4) #3: total luciferase, z-score = -1.5; activity call = inactive
RESF1 (retroelement silencing factor 1) #1: total luciferase, z-score = -0.546; activity call = inactive
RESF1 (retroelement silencing factor 1) #2: total luciferase, z-score = 1.53; activity call = inactive

Continued.
With BTAF1 (B-TFIID TATA-box binding protein associated factor 1) #1, what was measured?
total luciferase, z-score: -0.633; activity call: inactive

With BTAF1 (B-TFIID TATA-box binding protein associated factor 1) #2, what was measured?
total luciferase, z-score: -0.752; activity call: inactive

What is on record for BTAF1 (B-TFIID TATA-box binding protein associated factor 1) #3?
total luciferase, z-score: -0.102; activity call: inactive

How did the screen score SLC15A4 #1?
total luciferase, z-score: -1.17; activity call: inactive

Which result is listed for SLC15A4 #2?
total luciferase, z-score: -0.594; activity call: inactive

For SLC15A4 #3, what was measured?
total luciferase, z-score: 0.261; activity call: inactive

What is on record for MAPK14 (mitogen-activated protein kinase 14) #1?
total luciferase, z-score: 0.725; activity call: inactive

What did the screen give for MAPK14 (mitogen-activated protein kinase 14) #2?
total luciferase, z-score: -1.06; activity call: inactive

With MAPK14 (mitogen-activated protein kinase 14) #3, how do the results read?
total luciferase, z-score: -0.847; activity call: inactive

For IL1RAPL1 (interleukin 1 receptor accessory protein like 1) #1, how do the results read?
total luciferase, z-score: -0.0801; activity call: inactive

How did the screen score IL1RAPL1 (interleukin 1 receptor accessory protein like 1) #2?
total luciferase, z-score: 0.936; activity call: inactive

For IL1RAPL1 (interleukin 1 receptor accessory protein like 1) #3, how do the results read?
total luciferase, z-score: 0.446; activity call: inactive

How did the screen score OR3A4P (olfactory receptor family 3 subfamily A member 4 pseudogene) #1?
total luciferase, z-score: 2.65; activity call: inactive

What did the screen give for OR3A4P (olfactory receptor family 3 subfamily A member 4 pseudogene) #2?
total luciferase, z-score: 1.71; activity call: inactive

With OR3A4P (olfactory receptor family 3 subfamily A member 4 pseudogene) #3, how do the results read?
total luciferase, z-score: -1.03; activity call: inactive

For COL4A3 (collagen type IV alpha 3 chain) #1, what was measured?
total luciferase, z-score: 0.0963; activity call: inactive

Which result is listed for COL4A3 (collagen type IV alpha 3 chain) #2?
total luciferase, z-score: -0.494; activity call: inactive

What did the screen give for COL4A3 (collagen type IV alpha 3 chain) #3?
total luciferase, z-score: -0.77; activity call: inactive

What is on record for HLA-DRB1 (major histocompatibility complex, class II, DR beta 1) #1?
total luciferase, z-score: -0.985; activity call: inactive

With HLA-DRB1 (major histocompatibility complex, class II, DR beta 1) #2, what does the deposit list?
total luciferase, z-score: -0.711; activity call: inactive

What did the screen give for HLA-DRB1 (major histocompatibility complex, class II, DR beta 1) #3?
total luciferase, z-score: 4.21; activity call: active

With KLHL38 (kelch like family member 38) #1, what was measured?
total luciferase, z-score: -0.463; activity call: inactive

With KLHL38 (kelch like family member 38) #2, what was measured?
total luciferase, z-score: -0.226; activity call: inactive

With KLHL38 (kelch like family member 38) #3, how do the results read?
total luciferase, z-score: 0.435; activity call: inactive
